Reference: US20050267136A1, “Method of inhibiting dihydrofolate reductase; screening assay for the identification of novel therapeutics and their cellular targets” (McMaster University, priority 2003, published 2005)
At least one structure is not confirmed: it was looked up by name or label, or the drawing left a doubt.

Tested on: E. coli CW2553 containing pAK01 and pBAD18-folA (strain EB492)
Conditions: increasing DHFR expression from pBAD18-folA

In the case of `CN(C)[C@@H]1C(O)=C(C(N)=O)C(=O)[C@@]2(O)C(O)=C3C(=O)c4c(O)cccc4[C@@](C)(O)[C@H]3C[C@@H]12` [tetracycline, reference compound], the “dependence of the MIC on arabinose (inducer) concentration” value is reported as “without any impact on the MIC”.
